Measurements published in article PMC4066782, “The telomerase inhibitor Gno1p/PINX1 activates the helicase Prp43p during ribosome biogenesis” (Nucleic Acids Research, 2014).
Results are given in words; binding and its absence hold for the method and conditions named. Binding seen in cells or lysates may run through a third protein. Some results given as binding are weak or reduced against the parent protein; the word gives no strength. Where a sequence is shown, tags or fusion partners need not be part of it.

Sequences of proteins named here, by UniProt entry; tags and fusion partners are left off.
UniProt P53742: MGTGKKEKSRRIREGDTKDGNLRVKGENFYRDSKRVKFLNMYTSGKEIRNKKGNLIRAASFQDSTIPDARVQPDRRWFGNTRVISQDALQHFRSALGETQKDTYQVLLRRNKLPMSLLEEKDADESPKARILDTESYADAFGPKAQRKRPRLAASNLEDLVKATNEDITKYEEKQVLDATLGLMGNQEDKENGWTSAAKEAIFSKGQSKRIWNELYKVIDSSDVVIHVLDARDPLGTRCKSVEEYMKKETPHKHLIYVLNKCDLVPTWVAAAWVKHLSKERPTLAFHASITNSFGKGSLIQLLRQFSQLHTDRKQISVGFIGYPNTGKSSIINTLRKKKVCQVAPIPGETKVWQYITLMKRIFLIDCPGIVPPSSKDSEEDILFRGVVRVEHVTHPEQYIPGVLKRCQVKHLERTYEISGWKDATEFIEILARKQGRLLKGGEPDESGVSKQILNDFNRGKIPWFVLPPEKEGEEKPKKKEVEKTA
UniProt P53131: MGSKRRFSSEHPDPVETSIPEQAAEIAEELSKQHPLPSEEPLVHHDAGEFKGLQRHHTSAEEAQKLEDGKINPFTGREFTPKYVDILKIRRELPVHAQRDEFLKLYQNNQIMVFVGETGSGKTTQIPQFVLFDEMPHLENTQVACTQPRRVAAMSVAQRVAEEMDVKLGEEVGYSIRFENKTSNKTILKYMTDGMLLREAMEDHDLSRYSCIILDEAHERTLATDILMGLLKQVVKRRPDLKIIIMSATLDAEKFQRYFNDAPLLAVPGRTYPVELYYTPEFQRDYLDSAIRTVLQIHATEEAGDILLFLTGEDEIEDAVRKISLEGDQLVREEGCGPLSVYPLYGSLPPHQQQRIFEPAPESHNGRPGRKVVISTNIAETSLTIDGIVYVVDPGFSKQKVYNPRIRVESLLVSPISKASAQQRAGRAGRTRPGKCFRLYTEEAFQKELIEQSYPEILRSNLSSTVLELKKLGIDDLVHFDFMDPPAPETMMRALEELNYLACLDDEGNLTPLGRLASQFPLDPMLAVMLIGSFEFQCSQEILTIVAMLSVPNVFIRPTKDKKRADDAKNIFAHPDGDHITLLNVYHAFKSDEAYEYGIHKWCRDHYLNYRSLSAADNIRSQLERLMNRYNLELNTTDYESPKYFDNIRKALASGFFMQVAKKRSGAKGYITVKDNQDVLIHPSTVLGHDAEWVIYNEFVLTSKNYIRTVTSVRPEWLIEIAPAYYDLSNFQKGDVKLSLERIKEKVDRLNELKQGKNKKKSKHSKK

What was measured:
Experiment in all cases: co-IP; IgG sepharose beads precipitate the TAP- or ZZ-tagged protein from total yeast extracts; HA-tagged protein detected by western with anti-HA antibodies
[1] = biological target: Nog2p-TAP (S. cerevisiae) (UniProt P53742)
[2] = biological target: Prp43p-TAP (S. cerevisiae) (UniProt P53131)
[3] = biological target: T1, Utp18p-TAP (S. cerevisiae) (UniProt P40362)
T1 sequence: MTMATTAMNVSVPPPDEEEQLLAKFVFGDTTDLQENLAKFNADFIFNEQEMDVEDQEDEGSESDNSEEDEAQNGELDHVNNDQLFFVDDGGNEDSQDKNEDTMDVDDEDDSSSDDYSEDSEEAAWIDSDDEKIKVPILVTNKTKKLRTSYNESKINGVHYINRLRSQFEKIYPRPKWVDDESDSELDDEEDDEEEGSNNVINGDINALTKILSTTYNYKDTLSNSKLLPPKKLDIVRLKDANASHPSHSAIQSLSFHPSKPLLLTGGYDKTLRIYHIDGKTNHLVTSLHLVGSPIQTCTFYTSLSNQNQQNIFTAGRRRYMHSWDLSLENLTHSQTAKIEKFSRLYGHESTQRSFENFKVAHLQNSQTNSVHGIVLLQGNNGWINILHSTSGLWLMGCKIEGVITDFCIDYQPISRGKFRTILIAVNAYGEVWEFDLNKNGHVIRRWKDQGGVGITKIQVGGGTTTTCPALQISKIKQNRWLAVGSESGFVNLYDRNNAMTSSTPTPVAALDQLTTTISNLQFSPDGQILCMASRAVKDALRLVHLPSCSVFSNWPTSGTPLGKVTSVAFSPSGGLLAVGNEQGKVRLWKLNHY

[4] = biological target: T2, Utp21p-TAP (S. cerevisiae) (UniProt Q06078)
T2 sequence: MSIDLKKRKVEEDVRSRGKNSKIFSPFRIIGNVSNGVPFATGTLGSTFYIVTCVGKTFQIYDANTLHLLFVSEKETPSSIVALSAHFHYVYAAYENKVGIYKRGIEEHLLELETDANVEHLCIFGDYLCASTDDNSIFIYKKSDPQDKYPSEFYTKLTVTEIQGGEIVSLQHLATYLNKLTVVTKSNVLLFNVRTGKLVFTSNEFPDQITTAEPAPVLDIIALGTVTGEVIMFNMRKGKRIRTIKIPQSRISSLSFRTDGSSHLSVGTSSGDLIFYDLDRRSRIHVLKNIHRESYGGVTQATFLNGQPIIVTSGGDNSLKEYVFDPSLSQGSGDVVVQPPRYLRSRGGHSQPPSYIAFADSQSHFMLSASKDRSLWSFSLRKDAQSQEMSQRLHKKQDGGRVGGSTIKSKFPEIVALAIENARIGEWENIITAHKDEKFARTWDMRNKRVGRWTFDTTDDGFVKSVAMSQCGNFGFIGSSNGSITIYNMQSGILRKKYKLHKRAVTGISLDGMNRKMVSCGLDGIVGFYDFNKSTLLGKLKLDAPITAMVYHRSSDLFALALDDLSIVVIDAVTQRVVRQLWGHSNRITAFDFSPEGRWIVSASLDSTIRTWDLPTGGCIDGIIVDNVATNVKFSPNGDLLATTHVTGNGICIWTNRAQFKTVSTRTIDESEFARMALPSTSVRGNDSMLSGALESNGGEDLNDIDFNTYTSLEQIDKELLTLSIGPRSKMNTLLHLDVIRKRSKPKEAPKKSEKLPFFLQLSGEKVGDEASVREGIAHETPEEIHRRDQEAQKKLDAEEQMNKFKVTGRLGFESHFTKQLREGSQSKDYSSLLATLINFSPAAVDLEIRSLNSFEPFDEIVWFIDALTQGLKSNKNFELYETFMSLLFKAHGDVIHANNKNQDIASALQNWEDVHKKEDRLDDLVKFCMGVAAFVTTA

[5] = biological target: T3, Utp6p-TAP (S. cerevisiae) (UniProt Q02354)
T3 sequence: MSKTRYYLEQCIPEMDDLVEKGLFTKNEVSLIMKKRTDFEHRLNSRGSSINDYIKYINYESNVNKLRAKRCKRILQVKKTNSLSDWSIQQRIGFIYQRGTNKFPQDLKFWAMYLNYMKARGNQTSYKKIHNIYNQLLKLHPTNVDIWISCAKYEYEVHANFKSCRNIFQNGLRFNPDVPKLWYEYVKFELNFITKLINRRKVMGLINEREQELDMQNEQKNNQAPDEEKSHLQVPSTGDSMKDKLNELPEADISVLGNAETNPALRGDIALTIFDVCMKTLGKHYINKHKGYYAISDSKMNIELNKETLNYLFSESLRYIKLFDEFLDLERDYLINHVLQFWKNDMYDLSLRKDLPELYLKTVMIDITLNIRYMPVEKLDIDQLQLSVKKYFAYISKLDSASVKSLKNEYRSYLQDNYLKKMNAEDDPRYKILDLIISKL

binding [1]: no binding | binding [2]: binds | binding [3]: binds | binding [4]: binds | binding [5]: binds
B1: Gno1p-HA (GNO1-HA-TRP1 cassette, made with plasmid pFA6a-3HA-TRP1) (protein, UniProt P53335 1-271)
chain: MGLAATRTKQRFGLDPRNTAWSNDTSRFGHQFLEKFGWKPGMGLGLSPMNSNTSHIKVSIKDDNVGLGAKLKRKDKKDEFDNGECAGLDVFQRILGRLNGKESKISEELDTQRKQKIIDGKWGIHFVKGEVLASTWDPKTHKLRNYSNAKKRKREGDDSEDEDDDDKEDKDSDKKKHKKHKKHKKDKKKDKKDKKEHKKHKKEEKRLKKEKRAEKTKETKKTSKLKSSESASNIPDAVNTRLSVRSKWIKQKRAALMDSKALNEIFMITND
